Assay results: the supplement of paper PMC8728848
The list shows a part of the results.

Tests used:
Assay in all cases: glycan array binding signal (z-score within array); higher = stronger binding
Conditions in all cases: glycan notation: IUPAC condensed, linker removed
[1] = biological target: Gal3S4S(b1-4)GlcNAc
Procedure, shortened: (§1)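 Glycan array data came from 3228 arrays in the Consortium for Functional Glycomics database, and only arrays with an available protein sequence were kept. Glycan names were put into IUPAC-condensed notation, and columns mapping to the same glycan were averaged. The binding signal is a within-array Z-score, averaged across arrays of one protein sequence run at different concentrations or buffers and across linkers. A negative Z-score can be read as non-binding.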

[2] = biological target: Gal3S6S(b1-4)GlcNAc
Procedure, shortened: as §1

[3] = biological target: Gal3S6S(b1-4)GlcNAc6S
Procedure, shortened: as §1

[4] = biological target: Gal4S(b1-4)GlcNAc
Procedure, shortened: as §1

[5] = biological target: Gal4S6S(b1-4)GlcNAc
Procedure, shortened: as §1

[6] = biological target: Gal6P(b1-4)GlcNAc
Procedure, shortened: as §1

[7] = biological target: Gal6S(b1-3)GlcNAc
Procedure, shortened: as §1

[8] = biological target: Gal6S(b1-3)GlcNAc6S
Procedure, shortened: as §1

[9] = biological target: Gal6S(b1-4)Glc
Procedure, shortened: as §1

[10] = biological target: Gal6S(b1-4)Glc6S
Procedure, shortened: as §1

[11] = biological target: Gal6S(b1-4)GlcNAc
Procedure, shortened: as §1

[12] = biological target: Gal6S(b1-4)GlcNAc6S
Procedure, shortened: as §1

[13] = biological target: GalNAc(a1-3)Gal
Procedure, shortened: as §1

[14] = biological target: GalNAc(a1-3)GalNAc
Procedure, shortened: as §1

[15] = biological target: GalNAc(a1-3)GalNAc(b1-3)Gal(a1-4)Gal(b1-4)Glc
Procedure, shortened: as §1

[16] = biological target: GalNAc(a1-3)GalNAc(b1-3)Gal(a1-4)Gal(b1-4)GlcNAc
Procedure, shortened: as §1

[17] = biological target: GalNAc(b1-3)Gal
Procedure, shortened: as §1

[18] = biological target: GalNAc(b1-3)Gal(a1-4)Gal(b1-4)GlcNAc
Procedure, shortened: as §1

[19] = biological target: GalNAc(b1-3)Gal(a1-4)Gal(b1-4)GlcNAc(b1-3)Gal(b1-4)Glc
Procedure, shortened: as §1

[20] = biological target: GalNAc(b1-3)Gal(a1-6)Gal(b1-4)Glc
Procedure, shortened: as §1

[21] = biological target: GalNAc(b1-3)GalNAc
Procedure, shortened: as §1

[22] = biological target: GalNAc(b1-3)GlcNAc
Procedure, shortened: as §1

[23] = biological target: GalNAc(b1-4)Gal(b1-4)Glc
Procedure, shortened: as §1

[24] = biological target: GalNAc(b1-4)GlcNAc
Procedure, shortened: as §1

[25] = biological target: GalNAc(b1-4)GlcNAc(b1-2)Man
Procedure, shortened: as §1

[26] = biological target: GalNAc(b1-4)GlcNAc(b1-2)Man(a1-3)[GalNAc(b1-4)GlcNAc(b1-2)Man(a1-6)]Man(b1-4)GlcNAc(b1-4)GlcNAc
Procedure, shortened: as §1

[27] = biological target: GalNAc(b1-4)GlcNAc(b1-3)GalNAc(b1-4)GlcNAc
Procedure, shortened: as §1

[28] = biological target: GalNAc(b1-4)GlcNAc6S
Procedure, shortened: as §1

[29] = biological target: GalNAc(b1-6)GalNAc
Procedure, shortened: as §1

[30] = biological target: GalNAc3S(b1-4)GlcNAc
Procedure, shortened: as §1

[31] = biological target: GalNAc3S(b1-4)GlcNAc3S
Procedure, shortened: as §1

[32] = biological target: GalNAc3S(b1-4)[Fuc(a1-3)]GlcNAc
Procedure, shortened: as §1

[33] = biological target: GalNAc4S6S(b1-4)GlcNAc
Procedure, shortened: as §1

[34] = biological target: GalNAc6S(b1-4)GlcNAc
Procedure, shortened: as §1

[35] = biological target: Glc(a1-4)Glc
Procedure, shortened: as §1

[36] = biological target: Glc(a1-4)Glc(a1-4)Glc(a1-4)Glc
Procedure, shortened: as §1

[37] = biological target: Glc(a1-6)Glc(a1-6)Glc
Procedure, shortened: as §1

[38] = biological target: Glc(a1-6)Glc(a1-6)Glc(a1-6)Glc
Procedure, shortened: as §1

B1: AT5G24760(45) (Arabidopsis thaliana), Q8LEB2 (protein)
chain: MSASSSSFEQPQVITCNAAVAWRAGEPLVMEEVEVSPPQPLEIRIKVVCTSLCRSDLSAWESQSLLPRIFGHEAAGIVESIGEGVTEFEKGDHVLAVFTGECGSCRHCISGKSNMCQVLGMERKGLMHSDQKTRFSIKGKPVYHYCAVSSFSEYTVVHSGCAVKVDPLAPLHKICLLSCGVAAGLGAAWNVADVQKGSSVVIFGLGTVGLSVAQGAKLRGAAQILGVDINPAKAEQAKTFGVTDFINSNDLSEPIPQVIKRMTGGGADFSFECVGDTGIATTALQSCSDGWGMTVTLGVPKAKPEVSAHYGLFLSGKSLKGTLFGGWKPKSDLPSLIDKYMNKEIMIDEFITHNLSFDEINKAFVLMREGKCLRCVLHMPK
glycan array binding signal (z-score) [1]: -0.005 | glycan array binding signal (z-score) [2]: 0.315 | glycan array binding signal (z-score) [3]: -0.871 | glycan array binding signal (z-score) [4]: -0.737 | glycan array binding signal (z-score) [5]: 2.07 | glycan array binding signal (z-score) [6]: -0.869 | glycan array binding signal (z-score) [7]: -0.214 | glycan array binding signal (z-score) [8]: -0.455 | glycan array binding signal (z-score) [9]: -0.157 | glycan array binding signal (z-score) [10]: 0.137 | glycan array binding signal (z-score) [11]: -0.864 | glycan array binding signal (z-score) [12]: -0.4 | glycan array binding signal (z-score) [13]: 0.235 | glycan array binding signal (z-score) [14]: -0.754 | glycan array binding signal (z-score) [15]: 0.166 | glycan array binding signal (z-score) [16]: -0.035 | glycan array binding signal (z-score) [17]: 0.412 | glycan array binding signal (z-score) [18]: 1.38 | glycan array binding signal (z-score) [19]: -0.632 | glycan array binding signal (z-score) [20]: -0.337 | glycan array binding signal (z-score) [21]: -0.086 | glycan array binding signal (z-score) [22]: 0.645 | glycan array binding signal (z-score) [23]: 1.03 | glycan array binding signal (z-score) [24]: 3.23 | glycan array binding signal (z-score) [25]: 0.123 | glycan array binding signal (z-score) [26]: -0.34 | glycan array binding signal (z-score) [27]: 0.752 | glycan array binding signal (z-score) [28]: 1.24 | glycan array binding signal (z-score) [29]: 0.667 | glycan array binding signal (z-score) [30]: 1.1 | glycan array binding signal (z-score) [31]: -0.504 | glycan array binding signal (z-score) [32]: 0.319 | glycan array binding signal (z-score) [33]: 0.19 | glycan array binding signal (z-score) [34]: -0.477 | glycan array binding signal (z-score) [35]: 0.644 | glycan array binding signal (z-score) [36]: -0.914 | glycan array binding signal (z-score) [37]: -0.404 | glycan array binding signal (z-score) [38]: 0.911
